Primary screen of a compound library

Chains of the proteins cited; added tags and fusions are not shown.
UniProt E9BF75, entry or part of it: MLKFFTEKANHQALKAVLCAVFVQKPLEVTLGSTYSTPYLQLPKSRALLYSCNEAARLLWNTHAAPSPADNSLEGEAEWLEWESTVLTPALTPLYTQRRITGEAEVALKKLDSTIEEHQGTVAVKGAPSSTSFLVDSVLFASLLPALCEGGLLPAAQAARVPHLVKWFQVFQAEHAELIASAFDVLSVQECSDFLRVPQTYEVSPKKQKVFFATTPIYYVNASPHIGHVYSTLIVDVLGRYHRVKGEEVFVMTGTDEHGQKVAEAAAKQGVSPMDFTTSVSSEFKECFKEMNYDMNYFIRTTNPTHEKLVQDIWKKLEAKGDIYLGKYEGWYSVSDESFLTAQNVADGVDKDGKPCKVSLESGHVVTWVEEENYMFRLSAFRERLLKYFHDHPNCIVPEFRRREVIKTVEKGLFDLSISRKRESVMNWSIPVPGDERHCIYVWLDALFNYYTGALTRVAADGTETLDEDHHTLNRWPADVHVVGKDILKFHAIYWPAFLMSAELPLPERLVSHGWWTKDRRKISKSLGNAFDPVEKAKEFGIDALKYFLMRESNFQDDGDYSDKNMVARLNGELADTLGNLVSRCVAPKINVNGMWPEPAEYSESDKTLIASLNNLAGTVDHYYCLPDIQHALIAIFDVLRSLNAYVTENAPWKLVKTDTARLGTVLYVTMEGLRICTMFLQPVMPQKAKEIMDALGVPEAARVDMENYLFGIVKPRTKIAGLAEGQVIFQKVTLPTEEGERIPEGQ

All values are in %. How 0% and 100% were set is not recorded. Most values in the screen are low, and negative values occur. Compounds were drawn at random from those tested, without regard to their results.

LdMetRS: 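Methionyl-tRNA synthetase (putative), Leishmania donovani (UniProt E9BF75). Primary screen of methionyl-tRNA synthetase; the read-out is not stated. The test concentration is not given. Values are per cent inhibition. Size under these conditions: about 68,000 compounds, about 24 of them at 50% or above in at least one test.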
Mtb heat-shock: 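Assay on Mycobacterium tuberculosis, filed only as a heat shock assay from Cornell; the read-out is not stated. The concentration is filed as 10 mM, unlikely as a test dose, so the dose is not known. Higher reads as stronger inhibition (inferred: compounds with an IC50 in retests scored well above the rest). About 69,000 compounds were tested under these conditions; 1.4% (about 930) showed 50% or more at least once.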

* Cc1nc(NC(=O)c2cccnc2N2CCOCC2)sc1C | LdMetRS: 15.27%; Mtb heat-shock: 14.96%
* O=C([C@H]1CN(Cc2ccoc2)C[C@H]2OCC[C@@H]12)N1CCCCO1 | LdMetRS: 12.7%
* Cc1ccc([C@@H]2CN(C(=O)c3ccccc3C)C[C@H]2N(C)C)cc1 | LdMetRS: 16.21%; Mtb heat-shock: -17.38%
* CN(CC(=O)N1CCc2[nH]c3ccc(F)cc3c2C1)CC1OCCO1 | LdMetRS: 7.592%; Mtb heat-shock: -15.29%
* O=C(NCCCn1nc2ccccn2c1=O)NC1CCC(O)CC1 (configuration not stated) | LdMetRS: 5.419%; Mtb heat-shock: -12.2%
* Cc1n[nH]c(C)c1NC(=O)NCc1ccccn1 | LdMetRS: 12.01%; Mtb heat-shock: -2.039%
* CS(=O)(=O)c1ccccc1NC(=O)N[C@@H]1c2ccccc2C[C@@H]1O | LdMetRS: 13.94%; Mtb heat-shock: -21.04%
* CCn1cc(CN2CCCn3nc(CNS(C)(=O)=O)cc3C2)c(C)n1 | LdMetRS: -0.5495%; Mtb heat-shock: 8.2%
* Cc1cccc(NC(=O)C(C)Nc2cccc(CN3CCOC3=O)c2)c1 (configuration not stated) | LdMetRS: 13.72%; Mtb heat-shock: -4.417%
* Brc1ccc(NCc2ccc(Cn3ccnc3)cc2)nc1 | LdMetRS: 15.67%; Mtb heat-shock: 6.119%
* [H][C@@]12C[C@H](C(=O)NCc3ccco3)CN(C(=O)N(C)C)[C@]1([H])CCO2 | Mtb heat-shock: 6.355%
* NCC1Cc2cc(-c3cncc(C(=O)N4CCOCC4)n3)cc(Cl)c2O1 (configuration not stated) | LdMetRS: 8.462%; Mtb heat-shock: -24.55%
* CCN(CC)S(=O)(=O)N1CCc2nc(C3CCNCC3)ncc2C1.Cl | Mtb heat-shock: -7.475%
* Cc1oc(C(=O)O)cc1S(=O)(=O)Nc1cc(Br)ccc1Cl | LdMetRS: 1.425%; Mtb heat-shock: -22.96%
* [H][C@@]12C[C@H](C(=O)NCC(C)C)[C@@]([H])(CN(S(=O)(=O)c3cccc(C)c3)C1)O2 | Mtb heat-shock: -7.53%
* Cc1nc(-c2nnc(SCC(=O)O)n2C(C)c2ccccc2)co1 (configuration not stated) | LdMetRS: -1.075%; Mtb heat-shock: -31.48%
* COc1cc(CCC(=O)NCC2CCCN2C)ccc1OCC(F)(F)F (configuration not stated) | LdMetRS: 12.6%; Mtb heat-shock: 16.98%
* O=C(Nc1ccc(-n2cccn2)cc1)N1CCC(O)C1 (configuration not stated) | LdMetRS: 13.03%; Mtb heat-shock: -16.38%
* CSCC(C)(O)CNc1ncccc1I (configuration not stated) | LdMetRS: -4.261%; Mtb heat-shock: 0.03521%
* CCN(CC)C(=O)CSc1nc2cc(C)nc-2c(O)n1CC | LdMetRS: 6.516%; Mtb heat-shock: -9.021%
* [H][C@]12CN(c3cnn(C)c3)C(=O)[C@@]1([H])CN(S(=O)(=O)CC)C2 | Mtb heat-shock: -20.05%
* CO[C@H]1CCN(C2CCC2)[C@@H]2CN(Cc3ccncc3)C[C@H]12 | LdMetRS: 10.8%
* C[C@@H]1CN(c2nc(N)nc3c2CCC3)CC[C@@]1(O)C1CCC1 | LdMetRS: 12.71%; Mtb heat-shock: 21.72%
* Cc1cccc(Nc2cccc(C3CCCN(Cc4ncc[nH]4)C3)n2)n1 (configuration not stated) | LdMetRS: 21.29%; Mtb heat-shock: 2.864%
* CNc1cc(C)nc(C2COCCN2CCc2ccccc2)n1 (configuration not stated) | LdMetRS: 16.46%; Mtb heat-shock: -13.37%
* O=C(c1ccco1)N1CCCC2(CCN(CCN3CCCC3)C2=O)C1 (configuration not stated) | LdMetRS: 3.763%; Mtb heat-shock: -21.32%
* COCC(=O)NCC1CCCN(Cc2cc3ccccc3[nH]2)C1 (configuration not stated) | LdMetRS: 7.759%; Mtb heat-shock: -12.26%
* c1ccc(Cc2noc(CN3CCc4c(ncn4C4CC4)C3)n2)cc1 | LdMetRS: 5.714%; Mtb heat-shock: -27.72%
* O=C(c1cc(-c2ccn(CC3CC3)n2)n2ccccc12)N1CCCO1 | LdMetRS: -7.769%; Mtb heat-shock: 3.9%
* CCc1cc(CN(C)Cc2nc(-c3ccc(OC)cc3F)oc2C)on1 | LdMetRS: 7.821%; Mtb heat-shock: -6.767%
* CNc1nc(CNC(=O)Nc2ccc(SC)c(F)c2)cs1 | LdMetRS: 13.65%; Mtb heat-shock: 21.85%
* CCN(CC1CN(CCc2ccccn2)CCO1)c1cccnn1 (configuration not stated) | LdMetRS: 7.805%; Mtb heat-shock: 1.508%

The last 2 entries again:

| compound | LdMetRS | Mtb heat-shock |
|---|---|---|
| `CNc1nc(CNC(=O)Nc2ccc(SC)c(F)c2)cs1` | 13.65 | 21.85 |
| `CCN(CC1CN(CCc2ccccn2)CCO1)c1cccnn1` (configuration not stated) | 7.805 | 1.508 |

Measurements from “University of Dundee, Small-Polar-MMV Screening Library” (2021), ChEMBL document CHEMBL3988442.